In patent US11357850B2, “Methods for treating breast cancer using INOS-inhibitory compositions” (The Methodist Hospital, priority 2014, dated 2022):
At least one compound was matched to its structure with a doubt left. Some compounds share one wording; it may come from a single statement.

Assays:
MDA-MB-231 = assay: Cell proliferation assay (WST-1), calcium channel antagonists; format: cell-based, human; settings: 0, 1, 5, and 10 μM for 72 hrs
Method: (§1) Cell Proliferation Assay In Vitro. Mesenchymal-like, TNBC cell lines, MDA-MB-231 and SUM159, were grown in DMEM supplemented with 10% fetal bovine serum and 1% antibiotic-antimycotic. Stock solutions of various calcium-channel antagonists (amlodipine, nicardipine, nifedipine, felodipine, isradipine, diltiazem, verapamil, lacidipine, nisoldipine, nitrendipine, nivaldipine, azelnidipine, barnidipine, benidipine, efonidipine, lercanidipine, pranidipine, and manidipine) were prepared in DMSO. Effects on cell proliferation were assayed with the WST-1 method. Briefly, 1,000 (SUM159) and 2,000 (MDA-MB-231) cells/well were plated in a 96-well plate and treated with different concentrations (0, 1, 5, and 10 μM) of calcium channel antagonists for 72 hrs. Proliferation rate was determined by adding premixed WST-1 reagent. After incubation at 37° C. for three hrs, absorbance was read at 450 nm (reference wavelength 690 nm). Results were normalized against vehicle (100%). The antagonists were considered active when proliferation was decreased in ≥30%.

SUM159 = assay: as above; format: cell-based, human; settings: 0, 1, 5, and 10 μM for 72 hrs
Method: as §1

SUM159 orthotopic tumors = assay: Amlodipine in orthotopic tumor model; format: in vivo, mice; settings: 10 mg/kg i.p., two cycles, daily for 6 days each
[1] = tested on: MDA-MB-231 orthotopic tumors; assay: Amlodipine in orthotopic tumor model; format: in vivo, mice; settings: 10 mg/kg i.p., two cycles, daily for 6 days each

SMILES	proliferation (MDA-MB-231)	proliferation (SUM159)	tumor growth (SUM159 orthotopic tumors)	tumor growth [1]
CCOC(=O)C1=C(C)NC(C)=C(C(=O)OC)C1c1cccc(Cl)c1Cl (centres unmarked) [felodipine]	dose-dependent decrease in proliferation	dose-dependent decrease in proliferation	–	–
COC(=O)C1=C(C)NC(C)=C(C(=O)OCCN(C)Cc2ccccc2)C1c1cccc([N+](=O)[O-])c1 (centres unmarked) [nicardipine]	dose-dependent decrease in proliferation	dose-dependent decrease in proliferation	–	–
CCOC(=O)C1=C(COCCN)NC(C)=C(C(=O)OC)C1c1ccccc1Cl (centres unmarked) [amlodipine]	dose-dependent decrease in proliferation	dose-dependent decrease in proliferation	restrain growth	restrain growth
